Laboratory results published in PMC4071844.
Results are given in words; binding and its absence hold for the method and conditions named. For part of these data: A result given as binding can be weak or reduced; the word gives no strength. For part of these data: Binding seen in cells or lysates may run through a third protein. For part of these data: Sequences can lack the tags named with a protein. Blank lines part the entries; values can stand above or below the molecule they belong to.

Key:
GL1 (Arabidopsis) = biological target: T1, GL1 (Arabidopsis) (UniProt P27900); test: two-hybrid; dimer tests of MYB82 and GL1, full length and fragments, in pGBKT7 or pGADT7 (which in which is not told); growth on synthetic dropout medium lacking Leu/Trp/His/Ade and containing 5mM 3AT
T1 sequence: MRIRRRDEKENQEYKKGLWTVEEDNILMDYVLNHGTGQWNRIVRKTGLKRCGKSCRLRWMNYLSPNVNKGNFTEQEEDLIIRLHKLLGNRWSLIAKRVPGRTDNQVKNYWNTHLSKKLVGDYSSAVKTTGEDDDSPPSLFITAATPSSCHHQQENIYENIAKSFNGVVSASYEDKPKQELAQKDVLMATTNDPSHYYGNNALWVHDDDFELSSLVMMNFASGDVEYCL

MYB82 (Arabidopsis) = biological target: T2, MYB82 (Arabidopsis) (UniProt Q9LTF7); test: as above
T2 sequence: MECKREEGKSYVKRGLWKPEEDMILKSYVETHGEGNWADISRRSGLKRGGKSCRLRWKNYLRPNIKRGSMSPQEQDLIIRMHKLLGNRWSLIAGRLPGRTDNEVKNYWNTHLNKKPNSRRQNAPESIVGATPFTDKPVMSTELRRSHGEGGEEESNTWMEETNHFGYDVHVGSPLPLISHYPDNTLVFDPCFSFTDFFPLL

MYB82-nYFP (Arabidopsis) = biological target: T3, MYB82-nYFP (Arabidopsis) (UniProt Q9LTF7); test: split reporter; BiFC: nYFP and cYFP fusions transiently coexpressed in N. benthamiana leaves by Agrobacterium infiltration, 24 °C for 48h before observation
T3 sequence: T2 sequence

[1] = biological target: nMYB82, N-terminal R2R3-MYB domain of MYB82 (Arabidopsis); test: two-hybrid; MYB82 and its fragments fused to the BD of pGBKT7, GL3 fused to the AD of pGADT7; growth on synthetic dropout medium lacking Leu/Trp/His/Ade and containing 5mM 3AT
[2] = biological target: nYFP, N-terminal fragment of yellow fluorescent protein; test: split reporter; BiFC: nYFP and cYFP fusions transiently coexpressed in N. benthamiana leaves by Agrobacterium infiltration, 24 °C for 48h before observation

Molecule: nGL1, N-terminal R2R3-MYB domain of GL1 (Arabidopsis) (domain or fragment)
binding (GL1 (Arabidopsis)): binds
binding (MYB82 (Arabidopsis)): binds

Molecule: nMYB82, N-terminal R2R3-MYB domain of MYB82 (Arabidopsis) (domain or fragment)
binding (GL1 (Arabidopsis)): binds
binding (MYB82 (Arabidopsis)): binds

B1: GLABRA3 (GL3) (protein, UniProt Q9FN69 1-637)
chain: MATGQNRTTVPENLKKHLAVSVRNIQWSYGIFWSVSASQSGVLEWGDGYYNGDIKTRKTIQASEIKADQLGLRRSEQLSELYESLSVAESSSSGVAAGSQVTRRASAAALSPEDLADTEWYYLVCMSFVFNIGEGMPGRTFANGEPIWLCNAHTADSKVFSRSLLAKSAAVKTVVCFPFLGGVVEIGTTEHITEDMNVIQCVKTSFLEAPDPYATILPARSDYHIDNVLDPQQILGDEIYAPMFSTEPFPTASPSRTTNGFDQEHEQVADDHDSFMTERITGGASQVQSWQLMDDELSNCVHQSLNSSDCVSQTFVEGAAGRVAYGARKSRVQRLGQIQEQQRNVKTLSFDPRNDDVHYQSVISTIFKTNHQLILGPQFRNCDKQSSFTRWKKSSSSSSGTATVTAPSQGMLKKIIFDVPRVHQKEKLMLDSPEARDETGNHAVLEKKRREKLNERFMTLRKIIPSINKIDKVSILDDTIEYLQELERRVQELESCRESTDTETRGTMTMKRKKPCDAGERTSANCANNETGNGKKVSVNNVGEAEPADTGFTGLTDNLRIGSFGNEVVIELRCAWREGVLLEIMDVISDLHLDSHSVQSSTGDGLLCLTVNCKHKGSKIATPGMIKEALQRVAWIC
binding [1]: binds

B2: GL3-cYFP (protein, UniProt Q9FN69 1-637)
chain: B1 chain
binding [2]: no binding

Continued, values first:

binding (MYB82-nYFP (Arabidopsis)): no binding
Molecule: cYFP, C-terminal fragment of yellow fluorescent protein (domain or fragment)

binding (GL1 (Arabidopsis)): no binding
binding (MYB82 (Arabidopsis)): no binding
Molecule: cMYB82, C-terminal domain of MYB82 (Arabidopsis) (domain or fragment)
